Experimental data: PubChem BioAssay AID504784 (Drosophila RNAi Screening Center, 2011)
Test: 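Search for regulators of lipid droplet storage in oleate-fed fly cells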 (primary screen). Cells: Drosophila Kc167 embryonic cells. Reagent: long dsRNA against Drosophila genes, about 250 ng dsRNA per well. Timing: 4 days. Conditions: cells fed 400 µM oleic acid bound to BSA. Detection: 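Microscope images give a droplet-to-nucleus area ratio, taken as log and converted to a screen-wide B-score; higher values mean greater lipid storage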. Direction: droplet/nuclear area B-score: higher = more stored lipid (overstorage).
The screen tested about 17,000 reagents; this is a random part of those that have a named target and a result. 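Each column is one replicate's B-score; the combined score over replicates was not deposited, so single values may mislead.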 A plus sign joins genes that one reagent is predicted to hit. Further read-outs or replicates are left out here. Reagent sequences are not shown.

The opening 2 records, ahead of the listing:
mod(mdg4) + pre-mod(mdg4)-Z + pre-mod(mdg4)-T [DRSC13477]
- droplet/nuclear area B-score, replicate 1: 0.247

mod(mdg4) + pre-mod(mdg4)-Z + pre-mod(mdg4)-T [DRSC17001]
- droplet/nuclear area B-score, replicate 1: 0.62

The list itself, repeating the preview:
mod(mdg4) + pre-mod(mdg4)-Z + pre-mod(mdg4)-T [DRSC13477]
- droplet/nuclear area B-score, replicate 1: 0.247

mod(mdg4) + pre-mod(mdg4)-Z + pre-mod(mdg4)-T [DRSC17001]
- droplet/nuclear area B-score, replicate 1: 0.62

kermit [DRSC06074]
- droplet/nuclear area B-score, replicate 1: 0.448

ppk11 [DRSC02737]
- droplet/nuclear area B-score, replicate 1: 0.563

snRNP-U1-C [DRSC15804]
- droplet/nuclear area B-score, replicate 1: 1.63

CG42507 + Trl [DRSC09325]
- droplet/nuclear area B-score, replicate 1: 2.19

CG42507 + Trl [DRSC11308]
- droplet/nuclear area B-score, replicate 1: -2.35

CG15546 [DRSC15084]
- droplet/nuclear area B-score, replicate 1: 0.639

CG15546 [DRSC22831]
- droplet/nuclear area B-score, replicate 1: 0.966

CG7724 [DRSC10905]
- droplet/nuclear area B-score, replicate 1: 0.991

CG34174 [DRSC00101]
- droplet/nuclear area B-score, replicate 1: 0.275

ntc [DRSC08166]
- droplet/nuclear area B-score, replicate 1: 0.394

Trf2 [DRSC18727]
- droplet/nuclear area B-score, replicate 1: -1.13

SelR [DRSC16071]
- droplet/nuclear area B-score, replicate 1: -1.16

RN-tre [DRSC07521]
- droplet/nuclear area B-score, replicate 1: 1.85

Agpat2 [DRSC03532]
- droplet/nuclear area B-score, replicate 1: -1.56
